Data as given in PubChem BioAssay AID1259308 (NCATS, 2017)

Assay: 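Candidate targets for better recombinant protein yield in mammalian cells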 (primary screen)
Cells: human HEK293 embryonic kidney cells stably expressing firefly luciferase (HEK-CMV-Luc2-Hygro)
Reagent: single siRNA against human genes, 0.8 pmol siRNA per well
Duration: 72 h
Measured: 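Luciferase light (ONE-Glo) measured on one replicate plate set and viability (CellTiter-Glo) on the other, scaled to a negative control siRNA, with robust z-scores and luciferase per cell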
Scale: total luciferase, z-score and total luciferase, % of control: higher = more reporter protein produced
Active means: 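An siRNA counts as active if its total luciferase robust z-score exceeds 3; genes with two or more such siRNAs out of three were retested with fresh siRNAs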
Calls: active = raised luciferase; inactive = no rise
Shown is a random part of about 59,000 deposited reagents. In the full data, about 1,510 (2.6%) are marked active. 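Calls use total luciferase alone and ignore viability, so some active siRNAs may act by altering cell number.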 Reagents against one gene are numbered here. Further read-outs or replicates are left out here. No sequences are given here.

Knock-down of TIPE2 #1 gave: total luciferase, z-score 2; total luciferase, % of control 122; inactive.
After knock-down of TIPE2 #2 the results were total luciferase, z-score 0.15; total luciferase, % of control 84.9; inactive.
Silencing of TIPE2 #3 resulted in: total luciferase, z-score -0.805; total luciferase, % of control 65.9; inactive.
Knock-down of PPIAP66 #1 resulted in: total luciferase, z-score -0.528; total luciferase, % of control 71.4; inactive.
PPIAP66 #2 showed total luciferase, z-score -0.145; total luciferase, % of control 79; inactive.
PPIAP66 #3 showed total luciferase, z-score -1.05; total luciferase, % of control 61; inactive.
Against TMT1A #1 the deposit lists total luciferase, z-score -0.202; total luciferase, % of control 77.9; inactive.
TMT1A #2 gave total luciferase, z-score -0.351; total luciferase, % of control 74.9; inactive.
After knock-down of TMT1A #3, the record shows total luciferase, z-score -0.476; total luciferase, % of control 72.4; inactive.
For CDK16 #1, the entry reads total luciferase, z-score -0.765; total luciferase, % of control 66.7; inactive.
Against CDK16 #2 the deposit lists total luciferase, z-score -0.209; total luciferase, % of control 77.7; inactive.
CDK16 #3 gave total luciferase, z-score -0.214; total luciferase, % of control 77.6; inactive.
For NOL11 #1, the entry reads total luciferase, z-score -0.488; total luciferase, % of control 72.2; inactive.
After knock-down of NOL11 #2, the screen gave total luciferase, z-score -0.727; total luciferase, % of control 67.4; inactive.
NOL11 #3 gave total luciferase, z-score -1.46; total luciferase, % of control 52.8; inactive.
After knock-down of FGF14 #1, the screen gave total luciferase, z-score -0.71; total luciferase, % of control 67.8; inactive.
For FGF14 #2, the values are total luciferase, z-score -1.27; total luciferase, % of control 56.7; inactive.
FGF14 #3 showed total luciferase, z-score 0.52; total luciferase, % of control 92.2; inactive.
Knock-down of FAM227A #1 gave: total luciferase, z-score -0.715; total luciferase, % of control 67.7; inactive.
Silencing of FAM227A #2 came out at: total luciferase, z-score -0.257; total luciferase, % of control 76.8; inactive.
FAM227A #3 scored total luciferase, z-score 0.0734; total luciferase, % of control 83.3; inactive.

3 entries already listed, ordered by “total luciferase, z-score”, high to low:
PPIAP66 #2: total luciferase, z-score = -0.145; total luciferase, % of control = 79; outcome = inactive
TMT1A #1: total luciferase, z-score = -0.202; total luciferase, % of control = 77.9; outcome = inactive
PPIAP66 #3: total luciferase, z-score = -1.05; total luciferase, % of control = 61; outcome = inactive
